Taken from: PubChem BioAssay AID1053208 (Peter MacCallum Cancer Centre, 2014)
Aim: 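Genes whose silencing cuts survival of bone tumour cells only with doxorubicin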 (primary screen). Cell system: mouse osteosarcoma cells, early-passage culture from an engineered mouse model of fibroblastic bone tumour. Knock-down reagent: siRNA pool against mouse genes, 40 nM. Time to read-out: about 120 h (48 h before drug, then 72 h with drug). Treatment: doxorubicin 100 nM for 72 h, roughly 30-40% inhibitory dose. Detection: 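Viability read as ATP luminescence after 72 h of 100 nM doxorubicin or none, duplicate wells averaged, scaled to non-targeting siRNA, then expressed as robust z-scores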. Reading the numbers: viability z-score with doxorubicin and doxorubicin viability vs non-targeting: higher = more viable cells under doxorubicin; viability z-score without drug: higher = more viable cells with knock-down alone; z-score of drug to no-drug ratio: higher = less drug sensitisation by knock-down. Active means: 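a pool counts as active when its viability z-score with doxorubicin is -2 or below and its z-score without drug lies between -2 and 2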.
In all, the deposit lists about 17,000 reagents; shown is a part drawn at random. In the full data, 788 (4.7%) are marked active. 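Calls rest on z-score classes alone; an extra cut-off of viability at most 70% of control was not applied to them.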 Entries without a mark were called inactive. The numbers tell different reagents against one gene apart.

gene	pool no.	combined z-score class	viability z-score with doxorubicin	viability z-score without drug	z-score of drug to no-drug ratio	doxorubicin viability vs non-targeting
Vmn1r63 (vomeronasal 1 receptor 63)	1	high cell count without drug only	1.8	3.37	-0.22	1.1
Tspan12 (tetraspanin 12)	1	no change with or without drug	-0.22	-0.17	0	0.92
Ndufs4 (NADH:ubiquinone oxidoreductase core subunit S4)	1	no change with or without drug	-0.79	-0.17	-0.56	0.87
Zfp185 (zinc finger protein 185)	1	no change with or without drug	-0.22	-0.17	0	0.92
B530045E10Rik (RIKEN cDNA B530045E10 gene)	1	no change with or without drug	-0.22	-0.17	0	0.92
Pcdhb17 (protocadherin beta 17)	1	low cell count with doxorubicin only (active)	-2.25	-0.84	-1.8	0.74
Gnat2 (G protein subunit alpha transducin 2)	1	no change with or without drug	1.8	0.84	1.35	1.1
Or4k15b (olfactory receptor family 4 subfamily K member 15B)	1	no change with or without drug	-0.67	0.51	-0.9	0.88
Klhl1 (kelch-like 1)	1	no change with or without drug	-1.57	0.51	-1.8	0.8
Otop1 (otopetrin 1)	1	no change with or without drug	-1.24	0	-1.24	0.83
Jade1 (jade family PHD finger 1)	1	low cell count with doxorubicin only (active)	-2.47	-0.17	-2.36	0.72
Gimap3 (GTPase, IMAP family member 3)	1	no change with or without drug	-0.56	-0.17	-0.34	0.89
Creld2 (cysteine-rich with EGF-like domains 2)	1	no change with or without drug	-0.56	0.84	-1.01	0.89
Ppp1r14bl (protein phosphatase 1, regulatory inhibitor subunit 14B like)	1	high cell count without drug only	0.45	3.71	-1.57	0.98
Cdh26 (cadherin-like 26)	1	no change with or without drug	0.9	-0.17	1.24	1.02
H1f0 (H1.0 linker histone)	1	no change with or without drug	0.45	1.85	-0.67	0.98
Or2a52 (olfactory receptor family 2 subfamily A member 52)	1	no change with or without drug	-1.12	-1.18	-0.34	0.84
Pbxip1	1	no change with or without drug	0.22	0.51	0	0.96

Reagents listed above with an active call:
gene	pool no.	combined z-score class	viability z-score with doxorubicin	viability z-score without drug	z-score of drug to no-drug ratio	doxorubicin viability vs non-targeting
Pcdhb17 (protocadherin beta 17)	1	low cell count with doxorubicin only (active)	-2.25	-0.84	-1.8	0.74
Jade1 (jade family PHD finger 1)	1	low cell count with doxorubicin only (active)	-2.47	-0.17	-2.36	0.72

The listing continues.
gene	pool no.	combined z-score class	viability z-score with doxorubicin	viability z-score without drug	z-score of drug to no-drug ratio	doxorubicin viability vs non-targeting
Btf3l4 (basic transcription factor 3-like 4)	1	no change with or without drug	1.35	0.67	1.01	1.06
Kcnd3	1	no change with or without drug	1.01	1.52	0.11	1.03
Kcne2	1	no change with or without drug	0.67	0.84	0.22	1
E2f6 (E2F transcription factor 6)	1	no change with or without drug	0.22	-0.51	0.67	0.96
Syt4 (synaptotagmin IV)	1	no change with or without drug	0	0.67	-0.34	0.94
Psph (phosphoserine phosphatase)	1	no change with or without drug	1.57	0.34	1.46	1.08
Usp47 (ubiquitin specific peptidase 47)	1	no change with or without drug	-1.69	-0.17	-1.57	0.79
Usp47 (ubiquitin specific peptidase 47)	2	no change with or without drug	-0.45	0.34	-0.56	0.9
Or2l13b (olfactory receptor family 2 subfamily L member 13B)	1	no change with or without drug	-0.22	-0.51	0.22	0.92
Slc7a8	1	high cell count with doxorubicin only	2.7	0.51	2.47	1.18
Atp6v1e1 (ATPase, H+ transporting, lysosomal V1 subunit E1)	1	no change with or without drug	-0.34	1.52	-1.12	0.91
Slc25a23	1	no change with or without drug	-1.46	1.18	-2.14	0.81
Zdhhc2 (zinc finger, DHHC domain containing 2)	1	high cell count with doxorubicin only	3.04	1.35	2.14	1.21
Slc7a5	1	no change with or without drug	0.56	-0.51	1.12	0.99
Vac14 (Vac14 homolog (S. cerevisiae))	1	no change with or without drug	1.12	1.52	0.22	1.04
Ndufa13 (NADH:ubiquinone oxidoreductase subunit A13)	1	no change with or without drug	-0.9	-1.18	0	0.86
